Data taken from patent US20090317386A1.
No constants are given. Whether binding was seen depends on the method and setting. In cells and extracts the contact can be indirect. Some binding calls cover weakened binding; strength is not graded here.

The chains behind the UniProt entries cited, without tags or fusion partners. Where a name states a change or a piece, a line headed by the entry shows the natural chain unless it says otherwise. A line that says so, or that is headed by a name, gives the form on record, which may keep a tag or linker. Residues count along the entry.
native ApoAII (P02652, residues 24-100): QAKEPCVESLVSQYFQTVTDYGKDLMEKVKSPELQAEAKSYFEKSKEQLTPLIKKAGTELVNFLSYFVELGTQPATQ
PSP form of ApoAII (P02652, form named): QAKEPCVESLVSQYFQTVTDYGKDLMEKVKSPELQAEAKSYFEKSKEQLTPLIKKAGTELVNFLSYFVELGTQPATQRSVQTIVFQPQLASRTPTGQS

Biological target: native ApoAII (human) (UniProt P02652)
Assay: co-elution from the anti-PSP antibody affinity column, Western blot

PSP form of ApoAII (from UniProt P02652 24-100)
binding: binds
